# About 7,700 (2.3%) of roughly 330,000 compounds were called active. The shares of active, inactive and inconclusive entries below differ from those in the screen. Calls follow the shape of the dose curve; as a rule, active = well fitted inhibition curve with a large enough effect; inconclusive = small, poorly fitted or top-dose-only effect, or effect the other way; inactive = flat fitted curve, though single readings scatter. Potencies of inconclusive entries are doubtful fits and often do not repeat.
# Test: qHTS screen for small molecules that inhibit ELG1-dependent DNA repair in human embryonic kidney (HEK293T) cells expressing luciferase-tagged ELG1; also: nearly all actives have a fitted effect of over 55% in size
# Conditions: HEK293T ELG1-luciferase reporter, luminescence, 16 h, DNA damage induced by 5-fluorouridine; activity change, negative = inhibition: at 46.1 µM (top of the series)
# Outline: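 Luminescence from the luciferase reporter, measured 30 min after ONE-Glo reagent at room temperature, was the read-out. Beforehand, 2,000 cells per well were exposed for 16 hr at 37 °C to 5-fluorouridine together with compound or vehicle.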
# % is scaled to controls: 0 for no effect and ±100 for the full control effect; potency is read from the fitted curve at half-maximal effect.
Compound,Potency,"activity change, negative = inhibition"
O=C(Nc1ccc(N2CCOCC2)cc1)c1cc(-c2ccncc2)nc2ccccc12,"inconclusive: 23.1 µM [inhibitor, partial curve]",
OCCN1CCN(c2ncnc3scc(-c4ccc(F)cc4)c23)CC1,"inconclusive: 23.1 µM [inhibitor, partial curve, poor fit]",
O=C1c2ccccc2/C(=C\c2ccc(Br)s2)N1c1ccccc1,"inconclusive: 16.4 µM [activator, single point]",
COc1ccc(NC2=NCCCCC2)cc1,"inconclusive: 1.64 µM [inhibitor, partial curve]",
O=C(NCCc1c[nH]c2ccccc12)c1ccc(Br)o1,"inconclusive: 18.3 µM [activator, partial curve, poor fit]",
O=[N+]([O-])c1ccc(NC2CCN(Cc3ccccc3)CC2)c([N+](=O)[O-])c1,,inactive: -3.66%
O=C(/C=C/NNC(=O)c1ccc(Br)cc1)c1ccccc1,"inconclusive: 29.1 µM [activator, single point]",
CCOC(=O)/C=c1\s/c(=C\c2sccc2C)c(=O)n1CC(=O)NCc1ccc(C)cc1,"inconclusive: 29.1 µM [inhibitor, single point]",
CCOC(=O)c1sc(NC(=O)c2cc(S(=O)(=O)N3CCOCC3)ccc2C)nc1C,"inconclusive: 7.31 µM [inhibitor, single point]",
CC(C)(C)NC(=O)CCCSc1nc2ccccc2s1,"inconclusive: 4.11 µM [activator, full curve]",
Cc1onc(-c2c(Cl)cccc2Cl)c1C(=O)NC(=S)Nc1sc2c(c1C(N)=O)CCC(C)C2 (stereo unspecified),"inconclusive: 23.1 µM [activator, partial curve, poor fit]",
CSc1nc(N2CCOCC2)nc2ccc(C)cc12,"inconclusive: 35.5 µM [activator, single point]",
CCc1cccc(NC(=O)Nc2ccc3c(c2)OCO3)c1,,inactive: 20.6%
Cc1ccc(-c2csc3ncnc(Sc4nnc(CN5CCCCCC5=O)o4)c23)cc1,"inconclusive: 29.1 µM [inhibitor, partial curve, poor fit]",
CCS(=O)c1ccccc1C(=O)OC(C)C(=O)Nc1ccc(S(=O)(=O)N2CCCC2)cc1 (stereo unspecified),,inactive: 2.35%
CCOc1ccc(S(=O)(=O)NCCC(=O)N(C)Cc2ccc(C)o2)cc1,"inconclusive: 20.6 µM [activator, partial curve, poor fit]",
O=C(c1ccc2c(c1)OCCO2)N1CCN(c2ccc([N+](=O)[O-])cc2)CC1,"inconclusive: 20.6 µM [inhibitor, single point]",
CC(=O)c1ccc(OCC(=O)NC2CCCCCC2)cc1,"inconclusive: 20.6 µM [activator, partial curve, poor fit]",
CCOc1ccc(OCC)c(NC(=O)C2CCN(S(=O)(=O)c3ccc4c(c3)CC(C)N4C(C)=O)CC2)c1 (stereo unspecified),"inconclusive: 25.9 µM [inhibitor, single point]",
O=C(CC1C(=O)NCCN1C(=O)Nc1ccc(F)cc1)Nc1ccc(F)cc1 (stereo unspecified),"inconclusive: 29.1 µM [activator, single point]",
COc1cc(NC(=O)c2ccc(N3CCCC3=O)cc2)cc(OC)c1,"inconclusive: 4.61 µM [activator, partial curve]",

# A run of entries from the list above, for reference:
Compound,Potency,"activity change, negative = inhibition"
Cc1onc(-c2c(Cl)cccc2Cl)c1C(=O)NC(=S)Nc1sc2c(c1C(N)=O)CCC(C)C2 (stereo unspecified),"inconclusive: 23.1 µM [activator, partial curve, poor fit]",
CSc1nc(N2CCOCC2)nc2ccc(C)cc12,"inconclusive: 35.5 µM [activator, single point]",

# (cont.)

Compound,Potency,"activity change, negative = inhibition"
CSc1ccc(-c2nnn(Cc3ccccn3)n2)cc1,"inconclusive: 6.51 µM [activator, single point]",
Nc1nc(-c2ccc(Br)s2)c(Br)s1,"inconclusive: 23.1 µM [activator, partial curve]",
O=C(NC(=S)NCc1ccc(-c2nc3ccccc3s2)cc1)c1ccco1,"inconclusive: 5.17 µM [activator, full curve]",
O=C(NCCc1ccc(Cl)cc1)c1cccc(NC2=NC3CS(=O)(=O)CC3S2)c1 (stereo unspecified),,inactive: 13%
O=C(Nc1cnn(Cc2ccc(F)cc2)c1)c1cnn2c(C(F)F)cc(-c3ccccc3)nc12,active: 2.31 µM,
COc1ccc(OC)c(S(=O)(=O)n2ccc(C)n2)c1,,inactive: 7.02%
O=C(Cn1nc(C(=O)O)c2ccccc2c1=O)c1cc(F)ccc1F,"inconclusive: 1.64 µM [activator, partial curve, poor fit]",
CCO[C@H]1OC(C(=O)N2CCN(Cc3ccc4c(c3)OCO4)CC2)=C[C@@H](c2ccc(C(F)(F)F)cc2)[C@@H]1CCCO,"inconclusive: 25.9 µM [inhibitor, single point]",
Cc1c(C)c(C)c(S(=O)(=O)NCCc2ccncc2)c(C)c1C,"inconclusive: 23.1 µM [inhibitor, single point]",
NS(=O)(=O)c1ccc(CCNC(=O)c2cc(-c3ccccn3)nc3ccc(Br)cc23)cc1,"inconclusive: 29.1 µM [activator, single point]",
Cc1cscc1NC(=O)/C=C/C(=O)O,"inconclusive: 0.231 µM [inhibitor, single point]",
Cc1nc([N+](=O)[O-])c(Br)n1Cc1ccccc1,"inconclusive: 20.6 µM [activator, single point]",
CC1CC(NC(=O)CC#N)CC(C)(C)C1 (stereo unspecified),"inconclusive: 23.1 µM [activator, single point]",
N#C/C(=N/Nc1ccccc1F)C(=N)N1CCOCC1,"inconclusive: 18.4 µM [activator, partial curve, poor fit]",
O=C(CN1CCN(C/C=C/c2ccccc2)CC1)Nc1cc([N+](=O)[O-])ccc1Cl,"inconclusive: 29.1 µM [inhibitor, single point]",
C(=C\c1ccccc1)/C=N/N1CCN(c2ccccn2)CC1,"inconclusive: 14.6 µM [activator, partial curve]",
CCc1nnc(NC(=O)CSc2nnc(-c3ccc(S(=O)(=O)N4CCCC4)cc3)n2CC)s1,"inconclusive: 6.51 µM [inhibitor, single point]",
Cc1cc(N/N=C/c2ccccc2Br)nc2ccccc12,"inconclusive: 20.6 µM [activator, partial curve]",
COc1ccc2c(c1)CCc1c(C(=O)NCCCn3ccnc3)noc1-2,,inactive: -2.34%
CCN(CC)C(=O)c1oc2ccc(S(=O)(=O)N3CCCCCC3)cc2c1C,,inactive: -27.2%
